This is one part of the list. Values are raw readings; no control value is given beside them.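 First-pass screen: polymyxin B was added at a level that permeabilizes the Salmonella outer membrane while sparing the inner membrane. DMSO wells, with and without polymyxin B, defined maximum growth. Because plates differed from one another, each plate's data were ranked separately and the compounds with the lowest OD600 were carried forward as hits.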
System: Salmonella enterica serovar Typhimurium SL1344
Assay: bacterial growth OD600 after 18 h with compound and polymyxin B; higher = more bacterial growth (less inhibition)
Settings: 50 µM, Mueller-Hinton broth

| Compound | bacterial growth OD600 (polymyxin B 0.75 µg/mL) | bacterial growth OD600 (polymyxin B 1 µg/mL) |
| --- | --- | --- |
| O=C(c1ccccn1)N1CCOC(CCc2ccccc2)C1 (centres undefined) | 0.873 | – |
| COCc1ccc(C(=O)Nc2ccc(-c3nc(CNC(=O)c4cc(CC(C)C)on4)c(C)o3)cc2)o1 | 0.006 | – |
| COc1ccc2cc(C(=O)C3CCCN(Cc4cnn(C)c4)C3)ccc2c1 (centres undefined) | – | 0.873 |
| Cc1cccc(-c2cnc(-c3ccncc3)nc2C2CCN(C(=O)c3cc(CC(C)C)on3)CC2)c1 | 0 | – |
| CCOC(=O)C1(Cc2cccc(OC)c2)CCCN(Cc2ccc(COC)o2)C1 (centres undefined) | – | 0.934 |
| CSCCC(=O)N1CCCC(CCc2ccccc2)C1 (centres undefined) | 0.8 | – |
| Cc1ccc(CC2(CCC(=O)N(C)Cc3ccc(-n4cccn4)cc3)CCC(=O)N2)cc1 (centres undefined) | 0.849 | – |
| COc1ccc(C(=O)N2CCC(C(Cc3ccccc3C)N(C)C(=O)Cn3cccn3)CC2)cc1F (centres undefined) | 0.854 | – |
| OCCC#Cc1ccc(CN2CC[C@@H](N3CCCCCC3)[C@H](O)C2)cc1 | 0.795 | – |
| COc1ccccc1OCC(=O)NCC1CCCN(Cc2ccc(C)c(C)c2)C1 (centres undefined) | – | 0.933 |
| CC(C)CN1CCC(C(Cc2ccccc2Cl)N(C)C(=O)c2ccco2)CC1 (centres undefined) | 0.866 | – |
| O[C@@H]1CN(C/C(Cl)=C/c2ccccc2)CC[C@H]1N1CCN(c2ccccc2F)CC1 | 0.555 | – |
| Cc1ccc(CNC(=O)c2cc(COc3cccc4cccnc34)on2)s1 | – | 0.862 |
| Cc1cc(Cl)c2oc(C(=O)N3CCCC(C(=O)c4nccn4C)C3)c(C)c2c1 (centres undefined) | – | 0.699 |
| O=C(CN1Cc2ccccc2OC(c2ccccc2F)C1)N1CCC(C(O)c2cccnc2)CC1 (centres undefined) | 0.825 | – |
| Cc1nc(CN(C)C(=O)C2CCC(=O)N(CCc3cccc(F)c3)C2)cs1 (centres undefined) | – | 0.961 |
| CCN1CCN(C(=O)c2ccc(N3CCC(NCc4ccc(C(=O)OC)cc4)CC3)cc2)CC1 | 0.874 | – |
| O=C1NCCN(Cc2cccnc2)C1CC(=O)N(Cc1ccccc1)CC1CCC1 (centres undefined) | – | 0.832 |
| O=C(NC1CCCN(CCCc2ccccc2)C1)c1cc[n+]([O-])cc1 (centres undefined) | 0.817 | – |

Individual results from the results shown:
For bacterial growth OD600 (polymyxin B 1 µg/mL), `Cc1cc(Cl)c2oc(C(=O)N3CCCC(C(=O)c4nccn4C)C3)c(C)c2c1` (centres undefined) shows 0.699
For bacterial growth OD600 (polymyxin B 0.75 µg/mL), `COCc1ccc(C(=O)Nc2ccc(-c3nc(CNC(=O)c4cc(CC(C)C)on4)c(C)o3)cc2)o1` shows 0.006
